In PMC12623807 one finds binding data, which are given here for one molecule.

By UniProt entry, the sequences of proteins in these tests, tags left out.
UniProt Q9NZM1: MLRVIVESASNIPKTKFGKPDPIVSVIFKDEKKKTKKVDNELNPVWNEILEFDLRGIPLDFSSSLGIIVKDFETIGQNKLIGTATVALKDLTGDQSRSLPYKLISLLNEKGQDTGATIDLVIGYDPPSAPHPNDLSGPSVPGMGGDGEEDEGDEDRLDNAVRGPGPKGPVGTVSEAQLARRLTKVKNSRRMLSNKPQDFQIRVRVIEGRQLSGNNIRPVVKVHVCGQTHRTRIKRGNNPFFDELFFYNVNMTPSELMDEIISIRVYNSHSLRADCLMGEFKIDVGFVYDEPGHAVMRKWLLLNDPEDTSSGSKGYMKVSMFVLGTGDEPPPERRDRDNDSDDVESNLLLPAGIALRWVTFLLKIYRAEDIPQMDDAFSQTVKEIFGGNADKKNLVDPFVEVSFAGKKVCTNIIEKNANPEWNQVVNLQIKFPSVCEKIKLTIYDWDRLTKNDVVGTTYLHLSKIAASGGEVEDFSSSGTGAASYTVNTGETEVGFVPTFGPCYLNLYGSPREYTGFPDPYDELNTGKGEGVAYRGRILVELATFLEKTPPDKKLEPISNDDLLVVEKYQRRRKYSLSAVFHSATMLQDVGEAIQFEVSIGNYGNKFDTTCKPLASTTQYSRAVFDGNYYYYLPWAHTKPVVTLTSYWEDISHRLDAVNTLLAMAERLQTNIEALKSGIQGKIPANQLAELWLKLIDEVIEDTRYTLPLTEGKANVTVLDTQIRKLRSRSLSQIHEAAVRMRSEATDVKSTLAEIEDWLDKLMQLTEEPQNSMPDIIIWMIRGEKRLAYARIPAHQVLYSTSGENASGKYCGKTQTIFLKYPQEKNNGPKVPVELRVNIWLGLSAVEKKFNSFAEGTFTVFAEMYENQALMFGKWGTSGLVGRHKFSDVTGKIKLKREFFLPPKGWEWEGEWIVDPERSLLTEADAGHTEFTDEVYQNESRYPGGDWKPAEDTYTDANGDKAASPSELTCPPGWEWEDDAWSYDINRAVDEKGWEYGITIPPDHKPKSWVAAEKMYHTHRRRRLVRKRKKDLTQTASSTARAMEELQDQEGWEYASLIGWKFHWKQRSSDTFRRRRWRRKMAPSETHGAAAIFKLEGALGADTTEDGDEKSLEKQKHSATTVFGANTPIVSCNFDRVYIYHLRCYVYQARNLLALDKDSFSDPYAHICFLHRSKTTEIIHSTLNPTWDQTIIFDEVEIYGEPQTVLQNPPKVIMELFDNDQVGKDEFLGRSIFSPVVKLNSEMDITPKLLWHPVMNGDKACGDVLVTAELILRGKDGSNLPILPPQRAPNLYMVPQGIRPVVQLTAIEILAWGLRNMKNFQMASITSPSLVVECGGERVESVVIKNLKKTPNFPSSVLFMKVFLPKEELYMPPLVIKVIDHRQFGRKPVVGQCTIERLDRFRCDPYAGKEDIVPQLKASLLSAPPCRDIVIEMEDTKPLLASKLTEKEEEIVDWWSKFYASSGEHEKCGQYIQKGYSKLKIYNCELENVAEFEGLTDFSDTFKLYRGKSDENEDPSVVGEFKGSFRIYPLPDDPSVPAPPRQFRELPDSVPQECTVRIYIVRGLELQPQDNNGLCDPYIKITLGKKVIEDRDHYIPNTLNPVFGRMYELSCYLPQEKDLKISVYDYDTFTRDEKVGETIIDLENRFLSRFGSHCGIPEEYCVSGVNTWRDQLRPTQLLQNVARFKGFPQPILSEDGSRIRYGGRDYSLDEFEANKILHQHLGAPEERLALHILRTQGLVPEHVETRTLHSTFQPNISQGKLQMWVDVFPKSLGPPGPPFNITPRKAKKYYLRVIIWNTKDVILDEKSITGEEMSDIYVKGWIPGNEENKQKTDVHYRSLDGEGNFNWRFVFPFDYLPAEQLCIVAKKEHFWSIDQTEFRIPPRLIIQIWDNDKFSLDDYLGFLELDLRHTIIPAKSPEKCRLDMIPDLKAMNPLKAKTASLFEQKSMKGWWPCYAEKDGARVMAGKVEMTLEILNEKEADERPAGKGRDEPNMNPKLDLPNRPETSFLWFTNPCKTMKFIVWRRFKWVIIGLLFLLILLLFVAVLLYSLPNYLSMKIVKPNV

No constants are given. Whether binding was seen depends on the method and setting. In cells and extracts the contact can be indirect. Some entries that bind do so weakly or less than the wild type.

The target in the experiment is myoferlin (human (endogenous in HPSC127/CAF01 myCAFs)) (UniProt Q9NZM1). As to the kind of experiment: proximity ligation; Duolink in situ PLA on fixed (4% paraformaldehyde), permeabilised myCAFs (CAF01); primary antibodies 1/100 overnight at 4 °C; control without primary antibodies; PLA dots lost in MYOF knock-down myCAFs (shMYOF#1, shMYOF#2).

B1: TGFß-receptor 1 (receptor, UniProt P36897 34-503)
chain: LQCFCHLCTKDNFTCVTDGLCFVSVTETTDKVIHNSMCIAEIDLIPRDRPFVCAPSSKTGSVTTTYCCNQDHCNKIELPTTVKSSPGLGPVELAAVIAGPVCFVCISLMLMVYICHNRTVIHHRVPNEEDPSLDRPFISEGTTLKDLIYDMTTSGSGSGLPLLVQRTIARTIVLQESIGKGRFGEVWRGKWRGEEVAVKIFSSREERSWFREAEIYQTVMLRHENILGFIAADNKDNGTWTQLWLVSDYHEHGSLFDYLNRYTVTVEGMIKLALSTASGLAHLHMEIVGTQGKPAIAHRDLKSKNILVKKNGTCCIADLGLAVRHDSATDTIDIAPNHRVGTKRYMAPEVLDDSINMKHFESFKRADIYAMGLVFWEIARRCSIGGIHEDYQLPYYDLVPSDPSVEEMRKVVCEQKLRPNIPNRWQSCEALRVMAKIMRECWYANGAARLTALRIKKTLSQLSQQEGIKM
Consider B1, for which the binding entry was “binds”.
